According to publication doi:10.1101/2024.02.27.582308:
These are yes or no findings as the source states them, for the method shown. In cells and extracts the contact can be indirect. Some results given as binding are weak or reduced against the parent protein; the word gives no strength.

T1: MTERF3 (human (endogenous in HEK293T)) (UniProt Q96E29)
T1 sequence: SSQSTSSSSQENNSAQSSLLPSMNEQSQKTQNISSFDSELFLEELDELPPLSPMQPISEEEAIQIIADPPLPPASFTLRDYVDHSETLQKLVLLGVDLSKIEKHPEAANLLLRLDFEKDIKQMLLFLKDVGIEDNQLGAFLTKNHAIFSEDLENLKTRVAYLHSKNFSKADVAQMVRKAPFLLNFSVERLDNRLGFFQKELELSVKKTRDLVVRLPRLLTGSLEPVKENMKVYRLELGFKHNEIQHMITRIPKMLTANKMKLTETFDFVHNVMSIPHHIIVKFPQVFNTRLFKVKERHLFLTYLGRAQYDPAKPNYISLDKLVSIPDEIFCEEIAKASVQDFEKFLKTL

T2: COQ6 (human (endogenous in HEK293T)) (UniProt Q9Y2Z9)
T2 sequence: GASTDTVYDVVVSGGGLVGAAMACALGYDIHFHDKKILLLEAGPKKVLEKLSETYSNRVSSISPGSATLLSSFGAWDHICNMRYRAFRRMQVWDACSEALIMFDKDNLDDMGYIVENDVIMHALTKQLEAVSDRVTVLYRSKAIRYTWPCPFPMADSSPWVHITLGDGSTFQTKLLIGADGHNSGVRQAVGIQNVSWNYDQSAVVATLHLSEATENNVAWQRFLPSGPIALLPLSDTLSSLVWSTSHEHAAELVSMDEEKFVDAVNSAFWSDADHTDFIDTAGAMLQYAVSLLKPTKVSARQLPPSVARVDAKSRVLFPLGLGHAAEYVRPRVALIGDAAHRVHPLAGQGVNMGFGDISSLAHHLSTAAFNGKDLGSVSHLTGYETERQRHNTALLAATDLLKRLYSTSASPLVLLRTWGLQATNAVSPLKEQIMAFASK


Legend:
[1] = target: T1, MTERF3 (human (endogenous in HEK293T)); test: thermal proximity coaggregation analysis
[2] = target: T2, COQ6 (human (endogenous in HEK293T)); test: thermal proximity coaggregation analysis

Binder	binding [1]	binding [2]
TRUB2 (protein, UniProt O95900 11-331) GLFAVYKPPGLKWKHLRDTVELQLLKGLNARKPPAPKQRVRFLLGPMEGSEEKELTLTATSVPSFINHPLVCGPAFAHLKVGVGHRLDAQASGVLVLGVGHGCRLLTDMYNAHLTKDYTVRGLLGKATDDFREDGRLVEKTTYDHVTREKLDRILAVIQGSHQKALVMYSNLDLKTQEAYEMAVRGLIRPMNKSPMLITGIRCLYFAPPEFLLEVQCMHETQKELRKLVHEIGLELKTTAVCTQVRRTRDGFFTLDSALLRTQWDLTNIQDAIRAATPQVAAELEKSLSPGLDTKQLPSPGWSWDSQGPSSTLGLERGAGQ	binds	–
COQ3 (protein, UniProt Q9NZJ6 86-369) STSQTTVDSGEVKTFLALAHKWWDEQGVYAPLHSMNDLRVPFIRDNLLKTIPNHQPGKPLLGMKILDVGCGGGLLTEPLGRLGASVIGIDPVDENIKTAQCHKSFDPVLDKRIEYRVCSLEEIVEETAETFDAVVASEVVEHVIDLETFLQCCCQVLKPGGSLFITTINKTQLSYALGIVFSEQIASIVPKGTHTWEKFVSPETLESILESNGLSVQTVVGMLYNPFSGYWHWSENTSLNYAAYAVKSRVQEHPASAEFVLKGETEELQANACTNPAVHEKLKK	–	binds
